# Measurements reported in the supplement of paper PMC8728848.
# This is one part of the list.
# How the values were obtained:
# Test in all cases: glycan array binding signal (z-score within array); higher = stronger binding
# Settings in all cases: glycan notation: IUPAC condensed, linker removed
# [1] = biological target: Gal(b1-4)GalNAc(b1-3)[Fuc(a1-2)]Gal(b1-4)GlcNAc
# How it was run: (§1)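 The binding signal is a Z-score computed within each array and averaged over linkers. Arrays of the same protein sequence at different concentrations or buffers were also averaged together. Data originate from 3228 arrays in the Consortium for Functional Glycomics database, kept only where the protein sequence was available.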
# [2] = biological target: Gal(b1-4)Glc
# How it was run: as §1
# [3] = biological target: Gal(b1-4)Glc6S
# How it was run: as §1
# [4] = biological target: Gal(b1-4)GlcNAc
# How it was run: as §1
# [5] = biological target: Gal(b1-4)GlcNAc(a1-6)Gal(b1-4)GlcNAc
# How it was run: as §1
# [6] = biological target: Gal(b1-4)GlcNAc(b1-2)Man
# How it was run: as §1
# [7] = biological target: Gal(b1-4)GlcNAc(b1-2)Man(a1-3)Man(b1-4)GlcNAc(b1-4)GlcNAc
# How it was run: as §1
# [8] = biological target: Gal(b1-4)GlcNAc(b1-2)Man(a1-3)[Gal(b1-4)GlcNAc(b1-2)Man(a1-6)]Man(b1-4)GlcNAc(b1-4)GlcNAc
# How it was run: as §1
# [9] = biological target: Gal(b1-4)GlcNAc(b1-2)Man(a1-3)[Gal(b1-4)GlcNAc(b1-2)Man(a1-6)]Man(b1-4)GlcNAc(b1-4)[Fuc(a1-6)]GlcNAc
# How it was run: as §1
# [10] = biological target: Gal(b1-4)GlcNAc(b1-2)Man(a1-3)[Gal(b1-4)GlcNAc(b1-2)Man(a1-6)][Gal(b1-4)GlcNAc(b1-4)]Man(b1-4)GlcNAc(b1-4)[Fuc(a1-6)]GlcNAc
# How it was run: as §1
# [11] = biological target: Gal(b1-4)GlcNAc(b1-2)Man(a1-3)[Gal(b1-4)GlcNAc(b1-2)Man(a1-6)][GlcNAc(b1-4)]Man(b1-4)GlcNAc(b1-4)[Fuc(a1-6)]GlcNAc
# How it was run: as §1
# [12] = biological target: Gal(b1-4)GlcNAc(b1-2)Man(a1-3)[GlcNAc(b1-2)Man(a1-6)]Man(b1-4)GlcNAc(b1-4)GlcNAc
# How it was run: as §1
# [13] = biological target: Gal(b1-4)GlcNAc(b1-2)Man(a1-3)[GlcNAc(b1-4)][Gal(b1-4)GlcNAc(b1-2)Man(a1-6)]Man(b1-4)GlcNAc(b1-4)GlcNAc
# How it was run: as §1
# [14] = biological target: Gal(b1-4)GlcNAc(b1-2)Man(a1-3)[Man(a1-6)]Man(b1-4)GlcNAc(b1-4)GlcNAc
# How it was run: as §1
# [15] = biological target: Gal(b1-4)GlcNAc(b1-2)Man(a1-6)Man(b1-4)GlcNAc(b1-4)GlcNAc
# How it was run: as §1
# [16] = biological target: Gal(b1-4)GlcNAc(b1-2)Man(a1-6)[GlcNAc(b1-2)Man(a1-3)]Man(b1-4)GlcNAc(b1-4)GlcNAc
# How it was run: as §1
# [17] = biological target: Gal(b1-4)GlcNAc(b1-2)Man(a1-6)[Man(a1-3)]Man(b1-4)GlcNAc(b1-4)GlcNAc
# How it was run: as §1
# [18] = biological target: Gal(b1-4)GlcNAc(b1-2)[Gal(b1-4)GlcNAc(b1-4)]Man(a1-3)[Gal(b1-4)GlcNAc(b1-2)Man(a1-6)]Man(b1-4)GlcNAc(b1-4)GlcNAc
# How it was run: as §1
# [19] = biological target: Gal(b1-4)GlcNAc(b1-2)[Gal(b1-4)GlcNAc(b1-4)]Man(a1-3)[Gal(b1-4)GlcNAc(b1-2)[Gal(b1-4)GlcNAc(b1-6)]Man(a1-6)]Man(b1-4)GlcNAc(b1-4)GlcNAc
# How it was run: as §1
# [20] = biological target: Gal(b1-4)GlcNAc(b1-2)[Gal(b1-4)GlcNAc(b1-4)]Man(a1-3)[GlcNAc(b1-4)][Gal(b1-4)GlcNAc(b1-2)Man(a1-6)]Man(b1-4)GlcNAc(b1-4)GlcNAc
# How it was run: as §1
# [21] = biological target: Gal(b1-4)GlcNAc(b1-2)[Gal(b1-4)GlcNAc(b1-4)]Man(a1-3)[GlcNAc(b1-4)][Gal(b1-4)GlcNAc(b1-2)[Gal(b1-4)GlcNAc(b1-6)]Man(a1-6)]Man(b1-4)GlcNAc(b1-4)GlcNAc
# How it was run: as §1
# [22] = biological target: Gal(b1-4)GlcNAc(b1-2)[Gal(b1-4)GlcNAc(b1-6)]Man(a1-6)[Gal(b1-4)GlcNAc(b1-2)Man(a1-3)]Man(b1-4)GlcNAc(b1-4)GlcNAc
# How it was run: as §1
binder,measurement,setting,value
"XTP3-B-MRH1 (Homo sapiens), Q96DZ1 (protein) LLEPLFKQSSCSYRIESYWTYEVCHGKHIRQYHEEKETGQKINIHEYYLGNMLAKNLLFEKEREAEEKEKSNEIPTKNIEGQMTPYYPVGMGNGTPCSLKQNRPRSSTVMYICHPESKHEILSVAEVTTCEYEVVILTPLLCSHPKYRFRA",glycan array binding signal (z-score),[1],0.91
same,glycan array binding signal (z-score),[2],-0.045
same,glycan array binding signal (z-score),[3],-1.17
same,glycan array binding signal (z-score),[4],-0.514
same,glycan array binding signal (z-score),[5],-0.583
same,glycan array binding signal (z-score),[6],0.567
same,glycan array binding signal (z-score),[7],-0.159
same,glycan array binding signal (z-score),[8],-0.351
same,glycan array binding signal (z-score),[9],-0.184
same,glycan array binding signal (z-score),[10],0.082
same,glycan array binding signal (z-score),[11],0.221
same,glycan array binding signal (z-score),[12],0.025
same,glycan array binding signal (z-score),[13],-1.76
same,glycan array binding signal (z-score),[14],1.07
same,glycan array binding signal (z-score),[15],-0.194
same,glycan array binding signal (z-score),[16],-0.335
same,glycan array binding signal (z-score),[17],-0.267
same,glycan array binding signal (z-score),[18],-0.173
same,glycan array binding signal (z-score),[19],0.388
same,glycan array binding signal (z-score),[20],-0.081
same,glycan array binding signal (z-score),[21],0.945
same,glycan array binding signal (z-score),[22],-0.7

# For convenience, some entries already given.
binder,measurement,setting,value
"XTP3-B-MRH1 (Homo sapiens), Q96DZ1 (protein) LLEPLFKQSSCSYRIESYWTYEVCHGKHIRQYHEEKETGQKINIHEYYLGNMLAKNLLFEKEREAEEKEKSNEIPTKNIEGQMTPYYPVGMGNGTPCSLKQNRPRSSTVMYICHPESKHEILSVAEVTTCEYEVVILTPLLCSHPKYRFRA",glycan array binding signal (z-score),[8],-0.351
same,glycan array binding signal (z-score),[9],-0.184
